Data: PubChem BioAssay AID720504 (National Center for Advancing Translational Sciences (NCATS), 2013)
The whole screen tested about 360,000 compounds, of which about 10,000 (2.8%) were called active. The inconclusive results got no clear call from the source; some entries with a clear call stand among them for comparison. The call rests on the fitted dose curve; in most records, active means well fitted inhibition curve with a large enough effect; inconclusive means small, poorly fitted or top-dose-only effect; inactive means flat fitted curve, though single readings scatter. Potencies of inconclusive entries are doubtful fits and often do not repeat.

Protein sequences, listed by entry. Tags and fused reporters are not part of them.
UniProt P53350, whole entry, looked up: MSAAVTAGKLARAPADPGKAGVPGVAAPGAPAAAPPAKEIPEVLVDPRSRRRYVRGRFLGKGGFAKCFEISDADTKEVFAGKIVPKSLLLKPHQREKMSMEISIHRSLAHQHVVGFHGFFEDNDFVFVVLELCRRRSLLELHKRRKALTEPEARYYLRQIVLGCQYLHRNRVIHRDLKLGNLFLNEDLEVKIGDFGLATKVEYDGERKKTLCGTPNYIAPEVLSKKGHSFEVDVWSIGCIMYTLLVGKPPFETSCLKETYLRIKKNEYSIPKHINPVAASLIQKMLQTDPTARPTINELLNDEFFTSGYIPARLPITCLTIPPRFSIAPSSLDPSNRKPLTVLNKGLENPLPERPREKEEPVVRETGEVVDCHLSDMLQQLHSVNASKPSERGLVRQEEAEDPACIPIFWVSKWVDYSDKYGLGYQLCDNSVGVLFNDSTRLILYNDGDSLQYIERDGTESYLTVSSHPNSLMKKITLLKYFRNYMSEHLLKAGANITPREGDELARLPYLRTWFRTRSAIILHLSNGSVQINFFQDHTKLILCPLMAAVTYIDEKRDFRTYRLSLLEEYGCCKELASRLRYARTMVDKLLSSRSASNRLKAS

Target: Serine/threonine-protein kinase PLK1 (Homo sapiens) (UniProt P53350)
Assay: qHTS for Inhibitors of PLK1-PDB (polo-like kinase 1 - polo-box domain): Primary Screen; further: nearly all actives have a fitted effect of over 65% in size; on max response, negative = inhibition: series mostly up to about 57 µM
Settings: Plk1 PBD binding of FITC phosphopeptide, fluorescence polarization
On the % scale 0 is the no-effect control and ±100 the full control effect; potency means the concentration at half of the fitted maximal effect.

SMILES	Potency	max response, negative = inhibition
N#CC1=C2SCN(Cc3ccccc3)CN2C(=O)CC1c1cccs1 (centres undefined)	active: 23.8 µM	
Cc1cc(C)c(C)c(OCCn2ccnc2)c1		inactive: -16.9%
O=C(Nc1cccc(C(F)(F)F)c1)c1scc2c1OCCO2	inconclusive: 26.7 µM [inhibitor, partial curve]	
Cc1ccc(CNC(=O)Cn2nnc3ccccc3c2=O)cc1	inconclusive: 23.8 µM [inhibitor, single point]	
Cn1c(SCC(=O)N2c3ccccc3Sc3ccccc32)nnc1-c1ccco1		inactive: -4.68%
COc1ccc(NC(=S)c2ccc(N(C)C)cc2)cc1	inconclusive: 13.4 µM [inhibitor, partial curve]	
Cc1cc2nc(C3CCCCC3)c(Cc3cccc(F)c3)n2c(C)c1Br		inactive: -1.84%
C[C@@H]1CN([C@H](C)CO)C(=O)CCCn2cc(nn2)CO[C@H]1CN(C)S(=O)(=O)c1ccc(-n2cccn2)cc1	inconclusive: 23.8 µM [inhibitor, partial curve]	
Cc1ccc(Cl)cc1N(CC(=O)NCc1ccc2c(c1)OCO2)S(C)(=O)=O	inconclusive: 21.2 µM [inhibitor, single point]	
N#Cc1c(-c2cccs2)nc(SCC(=O)c2ccc(Br)cc2)[nH]c1=O	active: 26.7 µM	
CCOC(=O)c1c[nH]c2c(Cl)c(Cl)ccc2c1=O	active: 26.7 µM	
CC1CCCC(C)N1C(=O)COC(=O)c1cncc(Br)c1 (centres undefined)		inactive: -15.6%
Cc1ccc(C2CC(c3ccc(NS(C)(=O)=O)cc3)=NN2C(=O)c2ccco2)cc1 (centres undefined)		inactive: -7.66%
CCOc1cc(N2CCOCC2)c(OCC)cc1NC(=O)c1ccc(C)cc1		inactive: -8.05%
CC(C)CCOc1ncnc2c1sc1nc3c(cc12)CSC(C)(C)C3	inconclusive: 26.7 µM [inhibitor, partial curve]	
COc1ccccc1NC(=S)NCCc1ccccc1	inconclusive: 29.9 µM [inhibitor, single point]	
Cc1nc2c(C(=O)NCc3ccccc3)c[nH]n2c(=O)c1Cl	inconclusive: 20 µM [inhibitor, partial curve]	
NS(=O)(=O)c1ccc(CNC(=O)CSc2ccccc2)cc1		inconclusive: -30.3% [inhibitor]
O=C1C2CC(O)CN2C(=S)N1Cc1ccccc1 (centres undefined)		inconclusive: -34.8% [inhibitor]
CCOc1ccc(CNc2ccc(N3CCCC3)cc2)cc1	inconclusive: 5.97 µM [inhibitor, partial curve]	
COCC(=O)N(C)C[C@H]1N[C@@](Cc2ccccc2)(C(=O)OC)[C@H]2C(=O)N(Cc3ccccc3)C(=O)[C@@H]12	inconclusive: 21.2 µM [inhibitor, single point]	
COc1ccc(CCNC(=O)Cn2nnc3ccccc3c2=O)cc1		inactive: -11.8%
Cc1ccc(C)c(OCC(=O)Nc2cccc(C(=O)O)c2)c1C		inconclusive: -30.4% [inhibitor]
CCc1nnc(NS(=O)(=O)c2ccc(NC(=S)NC(=O)c3ccc(OC)cc3)cc2)s1	inconclusive: 29.9 µM [inhibitor, partial curve]	
COc1ccc2nc(/C=N/NC(=O)[C@H](CCSC)NC(=O)OC(C)(C)C)ccc2c1		inactive: -1.99%

SMILES	Potency	max response, negative = inhibition
CCOC(=O)C1=C(CSc2nc3c(cc2C#N)CN(C)CC3)OC(N)=C(C#N)C1c1ccc(Cl)cc1 (centres undefined)		inconclusive: -30.4% [inhibitor]
Cc1cc(-c2nnc3n2N=C(c2ccc(-c4ccccc4)cc2)CS3)n[nH]1	inconclusive: 29.9 µM [inhibitor, single point]	
Cc1nc2c3ccccc3nc(NNC(=O)CCC(=O)N3CCN(c4ccccc4F)CC3)n2n1		inactive: -8.54%
COc1ccc(S(=O)(=O)Nc2ccc(C)c(S(=O)(=O)N3CCOCC3)c2)cc1[N+](=O)[O-]		inactive: -0.0798%
COc1ccc(-c2ccc(C(=O)Nc3ccc(C(C)C)cc3)c3occc23)c(C)c1		inactive: -7.59%
N#CCCn1cc(C(N)=O)c(-c2ccc3ccccc3c2)n1	active: 26.7 µM	
Clc1ccccc1-c1nnc2sc(-c3ccncc3)nn12	active: 26.7 µM	
O=C(Nc1cccc(F)c1)/C(=C/c1ccco1)NC(=O)c1ccco1		inactive: -21.3%
N#CC1=C(N)OC2=C(CC/C2=C\c2ccccc2)C1c1ccccc1 (centres undefined)	inconclusive: 18.9 µM [inhibitor, single point]	
N#C/C(=C\c1ccncc1)C(=O)Nc1ccc(C(=O)O)cc1		inconclusive: -33.7% [inhibitor]
Cc1ccc(CNc2nc(-c3cccs3)nc3ccccc23)cc1	inconclusive: 18.9 µM [inhibitor, single point]	
O=C(O)c1ccc(CNc2ccccc2C(=O)O)cc1		inactive: -3.52%
O=C(/C=C/c1ccco1)NC(=S)Nc1cccc(C(=O)O)c1	inconclusive: 11.9 µM [inhibitor, partial curve]	
N#CC1=C(S)N(c2ccccc2)C(c2ccc(-c3ccc(Cl)c(Cl)c3)o2)NC1=O (centres undefined)	inconclusive: 23.8 µM [inhibitor, partial curve]	
O=c1oc(-c2ccc(Cl)cc2[N+](=O)[O-])nc2ccccc12	inconclusive: 29.9 µM [inhibitor, partial curve]	
CCc1ccc(C(=O)/C=C2\Sc3ccccc3NC2=O)cc1	inconclusive: 8.44 µM [inhibitor, partial curve]	
O=C(c1ccccc1Cl)N1CCC(N2CCC(C(=O)N3CCCC3)CC2)CC1	inconclusive: 23.8 µM [inhibitor, partial curve]	
CC1CCN(C(c2ccc(N(C)C)cc2)c2nnnn2C(C)(C)C)CC1 (centres undefined)		inactive: -2.94%
CCOC(=O)C1C(=O)CC(C)(O)C(C(=O)OCC)C1c1ccco1 (centres undefined)	active: 3.36 µM	
O=C(O)CCn1cc(/C=C/C(=O)c2ccc(Cl)cc2)c(-c2ccc(Br)cc2)n1	inconclusive: 21.2 µM [inhibitor, single point]	
O=[N+]([O-])c1ccccc1CN1CCN(c2ncccn2)CC1	inconclusive: 37.7 µM [inhibitor, single point]	
CC(C)N(CCCNC(=O)CC1Oc2ccccc2NC1=O)Cc1ccccc1 (centres undefined)	active: 26.7 µM	
O=C(O)/C=C/C(=O)NNC(=O)c1ccc(Cl)cc1Cl	active: 23.8 µM	
CCCCN(Cc1cc2cc(OC)ccc2[nH]c1=O)C(=O)c1ccccn1		inconclusive: -32.1% [inhibitor]
NC(=O)C1CCN(C(=O)c2ccccc2SCC(=O)NCC2CCCCC2)CC1		inactive: -8.43%

SMILES	Potency	max response, negative = inhibition
COc1ccc([C@@H]2[C@H]3C(=O)N(c4cccc(C(F)(F)F)c4)C(=O)[C@H]3ON2C)cc1		inactive: -0.499%
Cc1ccc(C)c(-n2cc[nH]c2=S)c1	inconclusive: 33.6 µM [inhibitor, single point]	
Cc1ccc(NC(=O)CSc2nnc(CNC(=O)c3ccco3)o2)cc1	inconclusive: 26.7 µM [inhibitor, single point]	
Cc1ccc(C2NC(=O)NC3=C2CCc2ccccc23)cc1 (centres undefined)		inactive: -6.45%
Cc1ccc(S(=O)(=O)Nc2nc3ccccc3nc2NCc2ccco2)cc1	inconclusive: 23.8 µM [inhibitor, partial curve]	
CC(=O)Nc1ccc(S(=O)(=O)N2CCCc3ccccc32)cc1		inactive: -0.717%
COc1ccc2cc(/C=C3\SC(=S)NC3=O)c(N3CCOCC3)nc2c1	inconclusive: 23.8 µM [inhibitor, single point]	
COc1ccc(-c2sc(Nc3ccccc3)n[n+]2-c2ccc(F)cc2)cc1Br		inconclusive: -30.4% [inhibitor]
N#CC1=C(N)OC2=C(C(=O)CCC2)C1c1cccs1 (centres undefined)	inconclusive: 21.2 µM [inhibitor, partial curve]	
CCOc1cc(CNCCO)cc(Br)c1OCc1ccccc1Cl		inactive: -2.6%
Cc1oc(-c2ccccc2)cc1C(=O)NC(Cc1c[nH]c2ccccc12)C(=O)O (centres undefined)	inconclusive: 21.2 µM [inhibitor, single point]	
Cc1ccoc1C(=O)N1CCCCC1C(=O)O (centres undefined)	active: 15 µM	
Cc1cc(C)nc(SCCS(=O)Cc2ccc(Cl)cc2)n1 (centres undefined)	inconclusive: 29.9 µM [inhibitor, partial curve]	
CCOC(=O)CCC(=O)c1c(C)oc2ccc(OC)cc12		inactive: -9.28%
Cc1cc2ccccc2n1CCC(=O)O	inconclusive: 26.7 µM [inhibitor, single point]	
Cc1ccc(NC(=O)CN2C(=O)S/C(=C\c3ccc(OCC(=O)O)c(Br)c3)C2=O)cc1	inconclusive: 29.9 µM [inhibitor, single point]	
N#CC1=C(SCC(=O)c2ccccc2)NC2=C(C(=O)CCC2)C1c1ccco1 (centres undefined)		inconclusive: -30.7% [inhibitor]
Cc1[nH]c2ccc(C(=O)N3CCCC3)cc2c1C		inactive: -14.1%
O=C(CSc1nnc(-c2cccnc2)o1)Nc1cccc(F)c1	inconclusive: 26.7 µM [inhibitor, single point]	
O=C(CCN1C(=O)C2CC=C(Cl)CC2C1=O)N1CCCCC1 (centres undefined)		inconclusive: -34.9% [inhibitor]
CC(C)C[C@H](NC(=O)OCC1c2ccccc2-c2ccccc21)C(=O)O		inactive: -7.96%
CC(C)CC(=O)Nc1nc(=S)ss1	active: 16.8 µM	
CCN(CC)CCOc1nc(C)nc2c1oc1ccccc12	active: 26.7 µM	
Cc1cnc(=O)[nH]c1SCC(=O)c1ccc(F)cc1	active: 11.9 µM	

3 entries drawn at random from those above:
SMILES	Potency	max response, negative = inhibition
N#CC1=C(N)OC2=C(CC/C2=C\c2ccccc2)C1c1ccccc1 (centres undefined)	inconclusive: 18.9 µM [inhibitor, single point]	
Cc1cnc(=O)[nH]c1SCC(=O)c1ccc(F)cc1	active: 11.9 µM	
CCOC(=O)CCC(=O)c1c(C)oc2ccc(OC)cc12		inactive: -9.28%
